Measurements published in US9751851B2, “Molecules and compositions that inhibit gram negative bacteria and their uses” (THE TRUSTEES OF PRINCETON UNIVERSITY, priority 2013, dated 2017).

Tested on: wild-type P. aeruginosa PA14
Experiment: microbe, parasite or virus in culture
Type: cell-based
Conditions: reduction of pyocyanin vs WT P. aeruginosa PA14: 0% = WT level, 100% = background medium
Description: Methods. The oxidized form of pyocyanin imparts a green color to P. aeruginosa cultures, making the production of pyocyanin convenient to monitor by UV/Vis absorbance. Overnight P. aeruginosa cultures were subcultured into 5 mL fresh medium at 1:1000 dilution. Synthetic compounds were assayed at 100 μM for end point assays and at concentrations ranging from 200 nM to 200 μM for titrations following 17 hr of aerobic growth with shaking at 37° C. Cells were separated from culture fluids via centrifugation at 13,000 rpm for 15 min. Culture fluids were passed through 0.22 μm syringe driven filters (Millipore). Cell-free culture fluids were analyzed for pyocyanin using wavelength scans on a Beckman Coulter DU-800 spectrophotometer from 200 nm to 800 nm 695 nm was chosen for graphical representation. Titration data were fit with a variable-slope sigmoidal dose-response curve using GraphPad Prism to determine the IC50 values.
The compounds of the first library were assayed in wild-type (WT) P. aeruginosa PA14. Pyocyanin was used as a read-out for quorum sensing activity based on its absorbance at 695 nm. The efficacy of the compounds at reducing pyocyanin levels was calculated with respect to WT levels of pyocyanin, where WT levels of pyocyanin would lead to a 0% efficacy, and an absorbance equal to the background medium would lead to a 100% efficacy. […]

Structure (SMILES): O=C(COc1ccc(Br)cc1)Nc1ccnc(C(F)(F)F)c1 [S64, 4-amino-2-trifluoromethylpyridine-C6-4-bromophenoxyhybrid]
- inhibition at 100 µM (Pseudomonas aeruginosa, PA14, 17 h, read-out: Efficacy (%), Table 4): 88%
- Efficacy (%) (Table 4): 88 ± 4%
